T. brucei: 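Whole-parasite assay of Trypanosoma brucei over 72 hours; the read-out is not stated. Concentration: 30 µM. Direction is inferred from retests: higher values go with stronger inhibition. Values scatter widely below zero; nearly all retest evidence comes from the higher of the two concentrations used. Of about 64,000 compounds tested this way, about 940 (1.5%) reached 50% or more in at least one test.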
TcHisRS: 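Enzyme assay of histidyl-tRNA synthetase; the read-out is not stated. Target: Histidine-tRNA ligase, Trypanosoma cruzi CL Brener (UniProt Q4DA54). Tested at 30 µM. Higher reads as stronger inhibition (inferred: compounds with an IC50 in retests scored well above the rest). Size under these conditions: about 69,000 compounds, about 31 of them at 50% or above in at least one test.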
LiHisRS: 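Histidine-tRNA ligase, Leishmania infantum (UniProt A4I591). Enzyme assay of histidyl-tRNA synthetase; the read-out is not stated. Compounds at 30 µM. Direction is inferred from retests: higher values go with stronger inhibition. The assay is labelled LdHisRS but filed under L. infantum. About 69,000 compounds were tested under these conditions; 0.6% (about 410) showed 50% or more at least once.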

By UniProt entry, the sequences of proteins in these tests, tags left out. Residues count along the entry.
UniProt Q4DA54, 1-478: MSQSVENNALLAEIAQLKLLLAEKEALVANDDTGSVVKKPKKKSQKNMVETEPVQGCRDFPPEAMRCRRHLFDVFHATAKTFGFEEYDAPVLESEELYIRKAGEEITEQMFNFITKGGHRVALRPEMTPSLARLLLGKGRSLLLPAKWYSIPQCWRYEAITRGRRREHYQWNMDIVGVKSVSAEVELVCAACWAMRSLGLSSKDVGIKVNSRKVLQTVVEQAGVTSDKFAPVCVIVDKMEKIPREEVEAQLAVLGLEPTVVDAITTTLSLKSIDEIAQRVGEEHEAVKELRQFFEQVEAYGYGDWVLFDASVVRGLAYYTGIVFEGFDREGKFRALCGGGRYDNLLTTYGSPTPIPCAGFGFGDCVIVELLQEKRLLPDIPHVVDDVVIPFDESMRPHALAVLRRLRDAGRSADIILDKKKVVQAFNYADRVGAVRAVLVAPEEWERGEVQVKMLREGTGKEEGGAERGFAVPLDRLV
UniProt A4I591, 1-473: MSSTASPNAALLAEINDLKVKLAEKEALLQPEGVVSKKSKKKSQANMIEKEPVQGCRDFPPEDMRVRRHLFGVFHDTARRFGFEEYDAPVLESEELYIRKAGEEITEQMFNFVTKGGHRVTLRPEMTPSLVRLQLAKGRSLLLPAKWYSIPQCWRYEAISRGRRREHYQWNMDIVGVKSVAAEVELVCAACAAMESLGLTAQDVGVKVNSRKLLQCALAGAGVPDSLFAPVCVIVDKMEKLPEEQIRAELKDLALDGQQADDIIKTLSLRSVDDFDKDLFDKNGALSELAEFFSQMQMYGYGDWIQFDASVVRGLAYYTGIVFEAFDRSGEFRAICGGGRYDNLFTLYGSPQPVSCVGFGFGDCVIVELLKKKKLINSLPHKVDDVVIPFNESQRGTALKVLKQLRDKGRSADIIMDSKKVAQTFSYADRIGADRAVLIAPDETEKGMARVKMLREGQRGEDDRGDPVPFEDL

Results are given as percent effect.
How 0% and 100% were set is not recorded. Most values in the screen are low, and negative values occur.
The compounds are a random part of those screened.

{"structure": "CC(C)Nc1nc2c(c(NC3CC3)n1)CCN(Cc1nccn1C)CC2.O=C(O)C(F)(F)F", "T. brucei": 9.762}
{"structure": "Cc1cc2n(n1)[C@@H](C(F)(F)F)C[C@@H](C1CCN(C(=O)C3CC3)CC1)N2", "T. brucei": -12.21, "TcHisRS": -11.94, "LiHisRS": 13.68}
{"structure": "Cn1cncc1CN1CCC(O)(Cn2nc(-c3cccs3)oc2=O)CC1", "TcHisRS": 7.752, "LiHisRS": 12.77}
{"structure": "Cc1nc(CN(C)CC2CCCN(CCc3ccc(Cl)cc3)C2)n(C)n1", "stereo": "stereo not drawn", "T. brucei": -15.19, "TcHisRS": -7.229, "LiHisRS": 17.95}
{"structure": "CCC(CO)N(Cc1ccncc1)Cc1c[nH]nc1-c1ccc(F)cc1", "stereo": "stereo not drawn", "T. brucei": -8.771, "TcHisRS": 8.38, "LiHisRS": 10.53}
{"structure": "O=C(C1CCOCC1)N1CCC2(CC1)CN(c1ccsc1)C(=O)CO2", "T. brucei": -79.91, "TcHisRS": 9.804, "LiHisRS": 20}
{"structure": "CCN1CCOCC12CCN(C(=O)C1CCCC1)CC2", "TcHisRS": 1.442, "LiHisRS": 19.27}
{"structure": "Cc1cc(C(=O)N2CCC(C)CC2)ccc1NS(C)(=O)=O", "T. brucei": -20.06, "TcHisRS": 1.508, "LiHisRS": 0.8}
{"structure": "O=C(O)C(F)(F)F.O=C1COC2(CCN(C(=O)C3CC=CC3)CC2)CN1Cc1cccnc1", "T. brucei": -21.86}
{"structure": "[H][C@@]12CN(Cc3ccc(OC)cc3)C[C@]1([H])OCC(=O)N2CC(N)=O", "T. brucei": -29.48}
{"structure": "O=C(O)C(F)(F)F.O=C(c1cnccn1)N1CCOCC2(CCN(C3CCOCC3)C2)C1", "stereo": "stereo not drawn", "T. brucei": 23.24}
{"structure": "O=S(=O)(NCC(c1ccsc1)N1CCCCCC1)c1cccs1", "stereo": "stereo not drawn", "T. brucei": -20.18, "TcHisRS": 4.523, "LiHisRS": 13.48}
{"structure": "c1ccc(CN2CCC3(CC2)CCN(Cc2cccs2)C3)nc1", "TcHisRS": 8.271, "LiHisRS": 17.07}
{"structure": "CN1CCC(NCC(O)c2cccc(OCc3ccccc3)c2)CC1", "stereo": "stereo not drawn", "T. brucei": 101.3, "TcHisRS": 5.941, "LiHisRS": 5.495}
{"structure": "COCC(C)NC(=O)CSc1ccc(F)c(Cl)c1", "stereo": "stereo not drawn", "T. brucei": -7.624, "TcHisRS": 0.5848, "LiHisRS": -2.632}
{"structure": "O=C1NC2(CCc3ccccc31)CCN(Cc1cccnc1)C2", "stereo": "stereo not drawn", "T. brucei": 11.81, "TcHisRS": 3.03, "LiHisRS": 11.59}
{"structure": "Cc1ccccc1C(=O)CN1C(=O)c2ccccc2CS1(=O)=O", "T. brucei": -14.33, "TcHisRS": -5.833, "LiHisRS": -5.769}
{"structure": "CN(Cc1cccc(Cl)c1)C(=O)Cn1nc(-c2ccc(F)cc2)oc1=O", "T. brucei": -9.224, "TcHisRS": -4.902, "LiHisRS": 11.2}
{"structure": "Cc1nccc(C2CN(S(=O)(=O)N(C)C)C2)n1", "T. brucei": -11.96, "TcHisRS": 2.682, "LiHisRS": -7.143}
{"structure": "CN1CCCN(S(=O)(=O)c2cccc(C(=O)N3CCCCCC3)c2)CC1", "T. brucei": -35.32, "TcHisRS": 4.972, "LiHisRS": 4.167}
{"structure": "COCC(=O)NCCn1ccc2c(OC)cccc21", "T. brucei": 21.63, "TcHisRS": -0.5464, "LiHisRS": 21.36}
{"structure": "COCCN(Cc1ccco1)Cc1nc(-c2ccsc2)no1", "T. brucei": -48.76, "TcHisRS": 8.824, "LiHisRS": -4.202}
{"structure": "Cc1ccc(CN2CC[C@@H]3[C@@H](CO[C@H]3CN3CCN(C)CC3)C2)cc1", "TcHisRS": 2.804, "LiHisRS": 18.06}
{"structure": "CS(=O)(=O)CCC(=O)NC1CC(c2ccccc2Cl)C1", "stereo": "stereo not drawn", "T. brucei": -26.6, "TcHisRS": 9.392, "LiHisRS": 18.31}
{"structure": "O=C(c1n[nH]c(=O)c2ccccc12)N1CCC(O)(CN2CCOCC2)C1", "stereo": "stereo not drawn", "TcHisRS": 4.615, "LiHisRS": 11.27}
{"structure": "CCc1ncncc1C(=O)N1CCOC(c2nc(C)n[nH]2)C1", "stereo": "stereo not drawn", "T. brucei": 14.76, "TcHisRS": -0.3759, "LiHisRS": 5.405}
{"structure": "CNC(=O)[C@@]12CCC3(CCN(C(=O)C(C)C)CC3)[C@@H]1CN(S(C)(=O)=O)C2", "TcHisRS": 5.607, "LiHisRS": 9.722}
{"structure": "N#Cc1ccc(N2CCC3(CCC(=O)N3CCN3CCCC3)CC2)nc1.O=C(O)C(F)(F)F.O=C(O)C(F)(F)F", "T. brucei": 4.001}
{"structure": "CC1CCC(NC(=O)CNC2(c3cccc(Br)c3)CCOCC2)CC1", "stereo": "stereo not drawn", "T. brucei": -17.08, "TcHisRS": 7.522, "LiHisRS": 18.58}
{"structure": "Cc1ccc(CN2CCc3[nH]nc(C(=O)N4CCNC(=O)C4)c3C2)s1", "TcHisRS": -1.266, "LiHisRS": 15.52}

The last 3 entries again:

{"structure": "N#Cc1ccc(N2CCC3(CCC(=O)N3CCN3CCCC3)CC2)nc1.O=C(O)C(F)(F)F.O=C(O)C(F)(F)F", "T. brucei": 4.001}
{"structure": "CC1CCC(NC(=O)CNC2(c3cccc(Br)c3)CCOCC2)CC1", "stereo": "stereo not drawn", "T. brucei": -17.08, "TcHisRS": 7.522, "LiHisRS": 18.58}
{"structure": "Cc1ccc(CN2CCc3[nH]nc(C(=O)N4CCNC(=O)C4)c3C2)s1", "TcHisRS": -1.266, "LiHisRS": 15.52}

Data taken from ChEMBL document CHEMBL3988442, “University of Dundee, Small-Polar-MMV Screening Library” (2021).